Measurements from patent US10150736B2, “Haptens and immunoreactive agents and use thereof for producing family antibodies and immunoassays for quinolones” (Consejo Superior de Investigaciones Cientificas (CSIC), priority 2010, dated 2018).
At least one compound was matched to its structure with a doubt left.

Test system: antibodies developed with immunoreactive agents described herein
Assay: Determination of cross-reactivity by ELISA
Type: binding, rabbit
Settings: for % CR (cross-reactivity): (DI50 CPFX/DI50 of tested compounds)×100; for IC50: competitive ELISA, antiserum and immunoreactive agent not named
Protocol: Microtiter plates were coated with corresponding coating antigen (indirect format) or antiserum (direct format) dissolved in coating buffer (100 μL/well) overnight at 4° C. or during 4 hours at room temperature and covered with airtight adhesive plates. Subsequently, plates were washed with PBST (four times, 300 μL/well) and quinolone patters were added (0.01 nM-10000 nM, in PBST, 50 μL/well) followed by the corresponding antiserum (indirect format) or enzymatic tracer (direct format) (50 μL/well) in microtiter plates. After 30 minutes at room temperature, plates were washed as described above and, in the case of indirect format, a solution of antilgG rabbit IgG labelled with HRP (1/6000 in PBST) (100 μl/well) was added and incubated for 30 minutes at room temperature. Plates were washed again, and for both formats, substrate solution was added (100 μL/well). Color development was stopped after 30 minutes at room temperature with […] (50 μL/well), and absorbance was read at 450 nm. Standard curves were adjusted to a four parameter equation, using the following formula: Y−[(A−B)/1−[x/C)D]+B, where A represents maximum absorbance, B represents minimum absorbance, C represents the concentration producing 50% of maximum absorbance, and D represents the tangent at the inflection point of sigmoid curve.
Stock solutions were prepared at a concentration of […] for different quinolones and other antibiotics in sodium hydroxide ([…]) and measured by ELISA. Cross-reactivity values were calculated according to the equation below: (DI50 CPFX/DI50 of tested compounds)×100.

Compound	% CR (cross-reactivity) [%]	IC50 [μg-L^−1]
CC1COc2c(N3CCN(C)CC3)c(F)cc3c(=O)c(C(=O)O)cn1c23 (stereo not drawn) [Ofloxacin]	39	1.84
CN(C)[C@@H]1C(O)=C(C(N)=O)C(=O)[C@@]2(O)C(O)=C3C(=O)c4c(O)cccc4[C@@](C)(O)[C@H]3C[C@@H]12 [Tetracycline]	<0.2	>1000
C[C@H]1c2cccc(O)c2C(=O)C2=C(O)[C@]3(O)C(=O)C(C(N)=O)=C(O)[C@@H](N(C)C)[C@@H]3[C@@H](O)[C@@H]21 [Doxycycline]	<0.2	>1000
